Reference: PubChem BioAssay AID256 (DTP/NCI, 2004)
The list shows only some results of the screen, not a fair sample: it is rich in T/C values a quarter to a half above the control, in often repeated tests (any T/C) and in doses without a T/C. Other doses and runs of a compound stand elsewhere. T/C gives the treated animals as a percentage of the vehicle group. Some entries give survivors of the animals treated and no T/C: the source holds a T/C of zero for them, seemingly a mark for toxic or unscored doses. Some doses without a T/C left all or most animals alive at the check, yet need not have been tolerated: survival well below the control is almost never listed, so the zero probably covers shortened survival too. Survivors were counted at the toxicity check, usually on the fifth day, unless a day is given; later deaths do not show. Schedules are NCI's codes, taken here to give the interval after Q, in days (D) or hours (H), and the number of doses after X. Some entries were tested several times; the results are listed from low to high. Marks such as (2×) stand for listed records that agree. For survival time, this PubChem deposit counts one and a half times the control or more as active, and values a quarter to a half above the control carry no call in these data; other NCI protocols may use other cut-offs. Some T/C values carry the count of animals alive at the toxicity check (mostly the fifth day); without a count, all were alive then.

Tested on: CD2F1 mice, L1210 leukemia ip, survival T/C
Test: NCI In Vivo Anticancer Drug Screen. Data for tumor model L1210 Leukemia (intraperitoneal) in CD2F1 (CDF1) mice
Settings: higher T/C = longer survival
Summary of the method: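 Activity against a transplanted murine tumor was judged by comparing the compound group with a vehicle group. The outcome in the treated animals was divided by that in the controls.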

[1] = T/C endpoint: median survival time, dose: 150.0 mg/kg/injection, schedule: Q01DX009 (ip), vehicle: saline with Tween-80
[2] = T/C endpoint: median survival time, dose: 200.0 mg/kg/injection, schedule: Q01DX009 (ip), vehicle: saline with Tween-80
[3] = T/C endpoint: mean survival time, dose: 400.0 mg/kg/injection, schedule: Q01DX009 (ip), vehicle: saline with Tween-80

In the case of `O=C(Nc1ccccc1)c1c(O)[nH]c(=S)[nH]c1=O`, the T/C (T/C endpoint: median survival time, dose: 6.2 mg/kg/injection, schedule: Q01DX009 (ip), vehicle: other) was 127 % of control, the T/C (T/C endpoint: median survival time, dose: 12.5 mg/kg/injection, schedule: Q01DX009 (ip), vehicle: other) was 133 % of control and the T/C (T/C endpoint: median survival time, dose: 12.5 mg/kg/injection, schedule: Q01DX009 (ip), vehicle: saline with Tween-80, evaluated on day 30) was 102, 106, 110 (2×), 111 (2×), 112 (2×), 113 (2×), 114, 116, 117 (2×), 118, 125, 131 % of control. The T/C (T/C endpoint: median survival time, dose: 12.5 mg/kg/injection, schedule: Q01DX009 (ip), vehicle: saline with Tween-80, evaluated on day 35) was 115 % of control, the T/C (T/C endpoint: median survival time, dose: 12.5 mg/kg/injection, schedule: Q01DX009 (ip), vehicle: saline with Tween-80, evaluated on day 60) was 127 % of control and the T/C (T/C endpoint: median survival time, dose: 25.0 mg/kg/injection, schedule: Q01DX009 (ip), vehicle: saline with Tween-80, evaluated on day 30) was 107, 109, 113, 116 (2×), 118 [5 of 6 alive], 119, 120 (5×), 121, 122 (3×), 124, 125 (2×), 126, 127 (2×), 128, 131, 132, 134 (2×), 144 % of control. The T/C (T/C endpoint: median survival time, dose: 25.0 mg/kg/injection, schedule: Q01DX009 (ip), vehicle: saline with Tween-80, evaluated on day 35) was 132 % of control, the T/C (T/C endpoint: median survival time, dose: 25.0 mg/kg/injection, schedule: Q01DX009 (ip), vehicle: saline with Tween-80, evaluated on day 60) was 135 % of control [5 of 6 alive] and the T/C (T/C endpoint: median survival time, dose: 30.0 mg/kg/injection, schedule: Q01DX009 (ip), vehicle: saline with Tween-80) was 139 % of control. For the same compound, the survivor count (T/C endpoint: median survival time, dose: 50.0 mg/kg/injection, schedule: Q01DX005 (iv), vehicle: other) was 2 of 6, the T/C (T/C endpoint: median survival time, dose: 50.0 mg/kg/injection, schedule: Q01DX009 (ip), vehicle: saline with Tween-80, evaluated on day 30) was 123, 141, 142 (3×), 144 (3×), 145, 147 [5 of 6 alive], 151, 152, 158, 160, 162, 164, 170, 174, 175, 177, 178, 179, 182, 183, 185, 187, 216, 290 % of control and the T/C (T/C endpoint: median survival time, dose: 50.0 mg/kg/injection, schedule: Q01DX009 (ip), vehicle: saline with Tween-80, evaluated on day 35) was 209 % of control. The T/C (T/C endpoint: median survival time, dose: 50.0 mg/kg/injection, schedule: Q01DX009 (ip), vehicle: saline with Tween-80, evaluated on day 60) was 162, 175, 185 % of control, the T/C (T/C endpoint: median survival time, dose: 75.0 mg/kg/injection, schedule: Q01DX009 (ip), vehicle: saline with Tween-80) was 197, 210, 212, 235, 349 % of control and the survivor count (T/C endpoint: median survival time, dose: 100.0 mg/kg/injection, schedule: Q01DX005 (iv), vehicle: other) was 0 of 6. The survivor count (T/C endpoint: median survival time, dose: 100.0 mg/kg/injection, schedule: Q01DX009 (ip), vehicle: other) was 0 of 6, the T/C (T/C endpoint: median survival time, dose: 100.0 mg/kg/injection, schedule: Q01DX009 (ip), vehicle: saline with Tween-80, evaluated on day 30) was 91, 133, 166, 166 [4 of 6 alive], 177, 186, 189, 190, 197 (2×), 202 [5 of 6 alive], 214, 217 [5 of 6 alive], 223, 227, 228, 231, 285 (2×), 322 [5 of 6 alive], 326 [5 of 6 alive], 329 (2×), 329 [5 of 6 alive], 337, 340, 344 [5 of 6 alive], 375 % of control and the T/C (T/C endpoint: median survival time, dose: 100.0 mg/kg/injection, schedule: Q01DX009 (ip), vehicle: saline with Tween-80, evaluated on day 35) was 139 % of control [5 of 6 alive]. The T/C (T/C endpoint: median survival time, dose: 100.0 mg/kg/injection, schedule: Q01DX009 (ip), vehicle: saline with Tween-80, evaluated on day 45) was 256 % of control, the T/C (T/C endpoint: median survival time, dose: 100.0 mg/kg/injection, schedule: Q01DX009 (ip), vehicle: saline with Tween-80, evaluated on day 60) was 202, 219, 244 (2×), 250, 370, 722 % of control and the survivor count (T/C endpoint: median survival time, dose: 100.0 mg/kg/injection, schedule: Q01DX009 (ip), vehicle: water) was 0 of 4. The T/C (T/C endpoint: median survival time, dose: 125.0 mg/kg/injection, schedule: Q01DX009 (ip), vehicle: saline with Tween-80) was 246 [8 of 9 alive], 268, 317, 318, 625 % of control, the T/C [1] was 108 [8 of 10 alive], 122, 219, 625, 740 % of control and the survivor count [1] was 4 of 6. For the same compound, the T/C [2] was 94 [5 of 6 alive], 98, 104 [5 of 6 alive], 238 [4 of 6 alive], 261, 266 [4 of 6 alive], 292 [5 of 6 alive], 302, 313 [4 of 6 alive], 315, 326, 326 [5 of 6 alive], 329 [5 of 6 alive], 340 [5 of 6 alive], 344, 352 % of control, the survivor count [2] was 0 of 6 (2×), 1 of 6 (2×), 2 of 6, 2 of 5, 3 of 6, 4 of 6 and the survivor count (T/C endpoint: median survival time, dose: 200.0 mg/kg/injection, schedule: Q01DX009 (ip), vehicle: water) was 0 of 4.
With `O=C(O)c1cccnc1-c1ccccc1.[Cu+2]` the survivor count (T/C endpoint: mean survival time, dose: 75.0 mg/kg/injection, schedule: Q01DX001 (ip), vehicle: other) was 0 of 6, the survivor count (T/C endpoint: mean survival time, dose: 150.0 mg/kg/injection, schedule: Q01DX001 (ip), vehicle: other) was 0 of 6 and the survivor count (T/C endpoint: mean survival time, dose: 300.0 mg/kg/injection, schedule: Q01DX001 (ip), vehicle: other) was 0 of 6.
For `ClC=P(c1ccccc1)(c1ccccc1)c1ccccc1`, the survivor count [3] was 0 of 6.
`Nc1nc(N)c2cc(NCc3ccc(Cl)c(Cl)c3)ccc2n1` was tested, and the survivor count (T/C endpoint: mean survival time, dose: 75.0 mg/kg/injection, schedule: Q01DX001 (ip), vehicle: saline) was 3 of 6, the survivor count (T/C endpoint: mean survival time, dose: 150.0 mg/kg/injection, schedule: Q01DX001 (ip), vehicle: saline) was 0 of 6 and the survivor count (T/C endpoint: mean survival time, dose: 300.0 mg/kg/injection, schedule: Q01DX001 (ip), vehicle: saline) was 0 of 6.
With `CCc1ncnc2cc(OCC3CO3)c(OC)cc12` (stereo not drawn) the T/C (T/C endpoint: median survival time, dose: 10.0 mg/kg/injection, schedule: Q01DX009 (ip), vehicle: other) was 145 % of control, the T/C (T/C endpoint: median survival time, dose: 10.0 mg/kg/injection, schedule: Q03DX003 (ip), vehicle: saline) was 126 % of control and the T/C (T/C endpoint: median survival time, dose: 12.5 mg/kg/injection, schedule: Q01DX009 (ip), vehicle: DMSO) was 133 % of control. The T/C (T/C endpoint: median survival time, dose: 15.0 mg/kg/injection, schedule: Q01DX009 (ip), vehicle: suspension in saline) was 133 % of control, the T/C (T/C endpoint: median survival time, dose: 20.0 mg/kg/injection, schedule: Q01DX001 (ip), vehicle: other) was 133 % of control and the T/C (T/C endpoint: median survival time, dose: 20.0 mg/kg/injection, schedule: Q03DX003 (ip), vehicle: saline) was 133 and 135 % of control. For the same compound, the T/C (T/C endpoint: median survival time, dose: 20.0 mg/kg/injection, schedule: Q04DX003 (ip), vehicle: other) was 133 % of control, the T/C (T/C endpoint: median survival time, dose: 25.0 mg/kg/injection, schedule: Q01DX009 (ip), vehicle: DMSO) was 135 % of control and the T/C (T/C endpoint: median survival time, dose: 25.0 mg/kg/injection, schedule: Q01DX009 (ip), vehicle: saline with Tween-80) was 126 % of control. The T/C (T/C endpoint: median survival time, dose: 25.0 mg/kg/injection, schedule: Q01DX009 (ip), vehicle: saline) was 131 % of control, the T/C (T/C endpoint: median survival time, dose: 30.0 mg/kg/injection, schedule: Q01DX009 (ip), vehicle: suspension in saline) was 134 % of control [5 of 6 alive] and the T/C (T/C endpoint: median survival time, dose: 40.0 mg/kg/injection, schedule: Q01DX001 (ip), vehicle: other) was 145 % of control. The T/C (T/C endpoint: median survival time, dose: 40.0 mg/kg/injection, schedule: Q01DX001 (ip), vehicle: water) was 127 % of control, the T/C (T/C endpoint: median survival time, dose: 50.0 mg/kg/injection, schedule: Q01DX009 (ip), vehicle: saline with Tween-80) was 136 % of control and the T/C (T/C endpoint: median survival time, dose: 50.0 mg/kg/injection, schedule: Q01DX009 (ip), vehicle: saline) was 136 % of control. The T/C (T/C endpoint: median survival time, dose: 60.0 mg/kg/injection, schedule: Q01DX001 (ip), vehicle: water) was 144 % of control, the T/C (T/C endpoint: median survival time, dose: 60.0 mg/kg/injection, schedule: Q01DX009 (ip), vehicle: other) was 145 % of control and the T/C (T/C endpoint: median survival time, dose: 60.0 mg/kg/injection, schedule: Q01DX009 (ip), vehicle: suspension in saline) was 125 % of control. For the same compound, the T/C (T/C endpoint: median survival time, dose: 100.0 mg/kg/injection, schedule: Q01DX009 (ip), vehicle: DMSO) was 135 % of control, the survivor count (T/C endpoint: median survival time, dose: 100.0 mg/kg/injection, schedule: Q01DX009 (ip), vehicle: saline with Tween-80) was 6 of 6 and the survivor count (T/C endpoint: median survival time, dose: 100.0 mg/kg/injection, schedule: Q01DX009 (ip), vehicle: saline) was 6 of 6. For the same compound, the survivor count (T/C endpoint: median survival time, dose: 120.0 mg/kg/injection, schedule: Q01DX009 (ip), vehicle: suspension in saline) was 6 of 6.
`CCOC(=O)Nc1cc2c3ccccc3ncc2c2ccccc12` was tested, and the survivor count (T/C endpoint: mean survival time, dose: 100.0 mg/kg/injection, schedule: Q04DX003 (ip), vehicle: saline with Tween-80) was 6 of 6.
For `Nc1ncnc2nc(-c3cccc(CNC(=O)c4ccccc4S(=O)(=O)F)c3)[nH]c12`, the survivor count (T/C endpoint: mean survival time, dose: 200.0 mg/kg/injection, schedule: Q01DX001 (ip), vehicle: saline with Tween-80) was 6 of 6.
`C[N+](C)(CC(=O)Nc1ccc(Oc2ccc(Cl)cc2)cc1)Cc1ccccc1` was tested, and the survivor count (T/C endpoint: mean survival time, dose: 100.0 mg/kg/injection, schedule: Q01DX001 (ip), vehicle: Klucel (hydroxypropylcellulose) (HPC)) was 0 of 6, the survivor count (T/C endpoint: mean survival time, dose: 200.0 mg/kg/injection, schedule: Q01DX001 (ip), vehicle: Klucel (hydroxypropylcellulose) (HPC)) was 0 of 6 and the survivor count (T/C endpoint: mean survival time, dose: 400.0 mg/kg/injection, schedule: Q01DX001 (ip), vehicle: Klucel (hydroxypropylcellulose) (HPC)) was 0 of 6.
With `CCOC(=O)Cn1cnc2cc(C)c(C)cc21` the survivor count [3] was 3 of 6.
In the case of `CCC(C)(O)C(C)=O` (stereo not drawn), the survivor count (T/C endpoint: mean survival time, dose: 50.0 mg/kg/injection, schedule: Q01DX009 (ip), vehicle: Klucel (hydroxypropylcellulose) (HPC)) was 2 of 3.
